These are yes or no findings as the source states them, for the method shown. In cells and extracts the contact can be indirect. These calls come from enrichment with a bait or labelling near it, and not all partners need be listed. Sequences can lack the tags named with a protein.
T1: SBP-Flag-TKTL1 (human) (UniProt P51854)
T1 sequence: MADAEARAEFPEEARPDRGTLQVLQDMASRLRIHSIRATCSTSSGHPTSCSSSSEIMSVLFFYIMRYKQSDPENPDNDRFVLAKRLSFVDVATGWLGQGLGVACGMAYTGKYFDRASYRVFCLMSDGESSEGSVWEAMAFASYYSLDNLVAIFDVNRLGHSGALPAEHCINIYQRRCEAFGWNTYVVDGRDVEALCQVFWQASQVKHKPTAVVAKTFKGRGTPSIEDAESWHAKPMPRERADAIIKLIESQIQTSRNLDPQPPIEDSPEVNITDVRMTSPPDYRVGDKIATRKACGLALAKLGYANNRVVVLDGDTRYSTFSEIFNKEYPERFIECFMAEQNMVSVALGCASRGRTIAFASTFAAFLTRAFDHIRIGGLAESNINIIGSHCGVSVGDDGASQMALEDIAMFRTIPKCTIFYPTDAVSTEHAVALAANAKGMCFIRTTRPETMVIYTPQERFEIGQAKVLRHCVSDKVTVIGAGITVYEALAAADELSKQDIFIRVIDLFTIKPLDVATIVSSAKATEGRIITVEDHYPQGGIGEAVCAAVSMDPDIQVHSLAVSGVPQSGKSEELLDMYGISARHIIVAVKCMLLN

T2: SBP-Flag-TKT (human) (UniProt P29401)
T2 sequence: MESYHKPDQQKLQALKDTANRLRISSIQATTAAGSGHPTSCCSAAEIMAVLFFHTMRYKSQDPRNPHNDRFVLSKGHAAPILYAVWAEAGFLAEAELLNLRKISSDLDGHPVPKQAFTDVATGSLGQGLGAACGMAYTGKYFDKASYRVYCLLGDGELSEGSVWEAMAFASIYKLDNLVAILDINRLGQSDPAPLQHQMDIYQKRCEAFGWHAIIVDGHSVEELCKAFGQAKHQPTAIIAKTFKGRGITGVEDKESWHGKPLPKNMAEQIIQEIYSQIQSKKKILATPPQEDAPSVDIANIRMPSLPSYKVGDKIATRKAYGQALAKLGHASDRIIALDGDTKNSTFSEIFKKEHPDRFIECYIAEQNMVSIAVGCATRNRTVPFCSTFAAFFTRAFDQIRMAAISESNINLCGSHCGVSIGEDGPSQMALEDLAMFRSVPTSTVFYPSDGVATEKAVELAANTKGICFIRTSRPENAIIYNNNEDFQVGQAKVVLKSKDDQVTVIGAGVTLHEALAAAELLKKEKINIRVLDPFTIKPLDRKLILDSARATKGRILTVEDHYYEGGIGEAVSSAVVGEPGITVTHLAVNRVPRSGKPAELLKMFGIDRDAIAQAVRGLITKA


Assays:
SBP-Flag-TKTL1 (human) = biological target: T1, SBP-Flag-TKTL1 (human); assay: affinity purification with mass spectrometry; tandem affinity purification; 293T cells stably expressing SBP-Flag bait; 0.1% NP40 buffer; SBP beads 3 h at 4 °C; on-bead tryptic digestion
SBP-Flag-TKT (human) = biological target: T2, SBP-Flag-TKT (human); assay: as above

| binding (SBP-Flag-TKTL1 (human)) | binding (SBP-Flag-TKT (human)) | Binder |
| --- | --- | --- |
| binds | – | purified recombinant TKT (natural protein, human, UniProt P29401 1-623, looked up, wild-type transketolase (TKT), human; in vector pSJ3; also called TKT homodimer; TKT-TKT; source: E. coli BL21 (DE3)pLysS, purified (nickel column)) MESYHKPDQQKLQALKDTANRLRISSIQATTAAGSGHPTSCCSAAEIMAVLFFHTMRYKSQDPRNPHNDRFVLSKGHAAPILYAVWAEAGFLAEAELLNLRKISSDLDGHPVPKQAFTDVATGSLGQGLGAACGMAYTGKYFDKASYRVYCLLGDGELSEGSVWEAMAFASIYKLDNLVAILDINRLGQSDPAPLQHQMDIYQKRCEAFGWHAIIVDGHSVEELCKAFGQAKHQPTAIIAKTFKGRGITGVEDKESWHGKPLPKNMAEQIIQEIYSQIQSKKKILATPPQEDAPSVDIANIRMPSLPSYKVGDKIATRKAYGQALAKLGHASDRIIALDGDTKNSTFSEIFKKEHPDRFIECYIAEQNMVSIAVGCATRNRTVPFCSTFAAFFTRAFDQIRMAAISESNINLCGSHCGVSIGEDGPSQMALEDLAMFRSVPTSTVFYPSDGVATEKAVELAANTKGICFIRTSRPENAIIYNNNEDFQVGQAKVVLKSKDDQVTVIGAGVTLHEALAAAELLKKEKINIRVLDPFTIKPLDRKLILDSARATKGRILTVEDHYYEGGIGEAVSSAVVGEPGITVTHLAVNRVPRSGKPAELLKMFGIDRDAIAQAVRGLITKA |
| – | binds | purified recombinant TKTL1 (natural protein, human, UniProt P51854 1-596, looked up, wild-type transketolase-like protein 1 (TKTL1), human; in vector pSJ3; also called TKTL1 monomer; source: E. coli BL21 (DE3)pLysS, purified (nickel column)) MADAEARAEFPEEARPDRGTLQVLQDMASRLRIHSIRATCSTSSGHPTSCSSSSEIMSVLFFYIMRYKQSDPENPDNDRFVLAKRLSFVDVATGWLGQGLGVACGMAYTGKYFDRASYRVFCLMSDGESSEGSVWEAMAFASYYSLDNLVAIFDVNRLGHSGALPAEHCINIYQRRCEAFGWNTYVVDGRDVEALCQVFWQASQVKHKPTAVVAKTFKGRGTPSIEDAESWHAKPMPRERADAIIKLIESQIQTSRNLDPQPPIEDSPEVNITDVRMTSPPDYRVGDKIATRKACGLALAKLGYANNRVVVLDGDTRYSTFSEIFNKEYPERFIECFMAEQNMVSVALGCASRGRTIAFASTFAAFLTRAFDHIRIGGLAESNINIIGSHCGVSVGDDGASQMALEDIAMFRTIPKCTIFYPTDAVSTEHAVALAANAKGMCFIRTTRPETMVIYTPQERFEIGQAKVLRHCVSDKVTVIGAGITVYEALAAADELSKQDIFIRVIDLFTIKPLDVATIVSSAKATEGRIITVEDHYPQGGIGEAVCAAVSMDPDIQVHSLAVSGVPQSGKSEELLDMYGISARHIIVAVKCMLLN |

From publication PMC6555833, “APC/C^CDH1 synchronizes ribose-5-phosphate levels and DNA synthesis to cell cycle progression” (Nature Communications, 2019)
